The list shows a part of the results.
Assays:
Experiment in all cases: glycan array binding signal (z-score within array); higher = stronger binding
Settings in all cases: glycan notation: IUPAC condensed, linker removed
[1] = molecular target: Fuc(a1-2)[GalNAc(a1-3)]Gal(b1-4)GlcNAc(b1-6)GalNAc
In short: (§1)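 Arrays were curated from the Consortium for Functional Glycomics database, 3228 in total, and kept only where the protein sequence was available. Binding is expressed as a within-array Z-score. This score was averaged across arrays of the same protein sequence at different concentrations or buffers and across linkers, and negative values can be read as non-binding.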

[2] = molecular target: Fuc(a1-2)[GalNAc(a1-3)]Gal(b1-4)[Fuc(a1-3)]GlcNAc
In short: as §1

[3] = molecular target: Fuc(a1-2)[GalNAc(a1-3)]Gal(b1-4)[Fuc(a1-3)]GlcNAc(b1-3)GalNAc
In short: as §1

[4] = molecular target: Fuc(a1-2)[GalNAc(a1-4)]Gal(b1-4)GlcNAc
In short: as §1

[5] = molecular target: Fuc(a1-2)[GalNAc(b1-3)]Gal
In short: as §1

[6] = molecular target: Fuc(a1-3)GlcNAc
In short: as §1

[7] = molecular target: Fuc(a1-3)[Gal(b1-4)]Glc6S
In short: as §1

[8] = molecular target: Fuc(a1-3)[Gal(b1-4)]GlcNAc
In short: as §1

[9] = molecular target: Fuc(a1-3)[Gal(b1-4)]GlcNAc(b1-2)Man
In short: as §1

[10] = molecular target: Fuc(a1-3)[Gal(b1-4)]GlcNAc(b1-2)Man(a1-3)[Fuc(a1-3)[Gal(b1-4)]GlcNAc(b1-2)Man(a1-6)]Man(b1-4)GlcNAc(b1-4)GlcNAc
In short: as §1

[11] = molecular target: Fuc(a1-3)[Gal(b1-4)]GlcNAc(b1-2)Man(a1-3)[Fuc(a1-3)[Gal(b1-4)]GlcNAc(b1-2)Man(a1-6)]Man(b1-4)GlcNAc(b1-4)[Fuc(a1-6)]GlcNAc
In short: as §1

[12] = molecular target: Fuc(a1-3)[Gal(b1-4)]GlcNAc(b1-3)Gal(b1-3)[Fuc(a1-4)]GlcNAc
In short: as §1

[13] = molecular target: Fuc(a1-3)[Gal(b1-4)]GlcNAc(b1-3)Gal(b1-4)[Fuc(a1-3)]GlcNAc
In short: as §1

[14] = molecular target: Fuc(a1-3)[Gal(b1-4)]GlcNAc(b1-3)Gal(b1-4)[Fuc(a1-3)]GlcNAc(b1-3)Gal(b1-4)[Fuc(a1-3)]GlcNAc
In short: as §1

[15] = molecular target: Fuc(a1-3)[Gal(b1-4)]GlcNAc(b1-3)GalNAc
In short: as §1

[16] = molecular target: Fuc(a1-3)[Gal(b1-4)]GlcNAc(b1-4)Gal(b1-4)[Fuc(a1-3)]GlcNAc
In short: as §1

[17] = molecular target: Fuc(a1-3)[Gal(b1-4)]GlcNAc(b1-4)Gal(b1-4)[Fuc(a1-3)]GlcNAc(b1-4)Gal(b1-4)[Fuc(a1-3)]GlcNAc
In short: as §1

[18] = molecular target: Fuc(a1-3)[Gal(b1-4)]GlcNAc(b1-6)GalNAc
In short: as §1

[19] = molecular target: Fuc(a1-3)[Gal(b1-4)]GlcNAc(b1-6)[Gal(b1-3)GlcNAc(b1-3)]Gal(b1-4)Glc
In short: as §1

[20] = molecular target: Fuc(a1-3)[Gal(b1-4)]GlcNAc6S
In short: as §1

[21] = molecular target: Fuc(a1-3)[Gal3S(b1-4)]Glc
In short: as §1

[22] = molecular target: Fuc(a1-3)[Gal3S(b1-4)]GlcNAc
In short: as §1

[23] = molecular target: Fuc(a1-3)[Gal3S(b1-4)]GlcNAc6S
In short: as §1

[24] = molecular target: Fuc(a1-3)[GalNAc(b1-4)]GlcNAc
In short: as §1

[25] = molecular target: Fuc(a1-3)[GalNAc(b1-4)]GlcNAc6S
In short: as §1

[26] = molecular target: Fuc(a1-4)GlcNAc
In short: as §1

[27] = molecular target: Fuc(b1-3)GlcNAc
In short: as §1

[28] = molecular target: Gal(a1-2)Gal
In short: as §1

[29] = molecular target: Gal(a1-3)Gal
In short: as §1

[30] = molecular target: Gal(a1-3)Gal(b1-3)GlcNAc
In short: as §1

[31] = molecular target: Gal(a1-3)Gal(b1-3)GlcNAc(b1-2)Man
In short: as §1

[32] = molecular target: Gal(a1-3)Gal(b1-3)GlcNAc(b1-2)Man(a1-3)[Gal(a1-3)Gal(b1-3)GlcNAc(b1-2)Man(a1-6)]Man(b1-4)GlcNAc(b1-4)GlcNAc
In short: as §1

[33] = molecular target: Gal(a1-3)Gal(b1-3)GlcNAc(b1-3)GalNAc
In short: as §1

[34] = molecular target: Gal(a1-3)Gal(b1-3)GlcNAc(b1-6)GalNAc
In short: as §1

[35] = molecular target: Gal(a1-3)Gal(b1-3)[Fuc(a1-4)]GlcNAc(b1-2)Man(a1-3)[Gal(a1-3)Gal(b1-3)[Fuc(a1-4)]GlcNAc(b1-2)Man(a1-6)]Man(b1-4)GlcNAc(b1-4)GlcNAc
In short: as §1

[36] = molecular target: Gal(a1-3)Gal(b1-4)Glc
In short: as §1

[37] = molecular target: Gal(a1-3)Gal(b1-4)GlcNAc
In short: as §1

B1: Flo1 (Saccharomyces cerevisiae), P32768 (protein)
chain: SGATEACLPAGQRKSGMNINFYQYSLKDSSTYSNAAYMAYGYASKTKLGSVGGQTDISIDYNIPCVSSSGTFPCPQEDSYGNWGCKGMGACSNSQGIAYWSTDLFGFYTTPTNVTLEMTGYFLPPQTGSYTFKFATVDDSAILSVGGATAFNCCAQQQPPITSTNFTIDGIKPWGGSLPPNIEGTVYMYAGYYYPMKVVYSNAVSWGTLPISVTLPDGTTVSDDFEGYVYSFDDDLSQSNCTVPDPSNY
- glycan array binding signal (z-score) [1]: -0.029
- glycan array binding signal (z-score) [2]: 0.058
- glycan array binding signal (z-score) [3]: 1.15
- glycan array binding signal (z-score) [4]: 0.471
- glycan array binding signal (z-score) [5]: -0.392
- glycan array binding signal (z-score) [6]: -0.377
- glycan array binding signal (z-score) [7]: 0.706
- glycan array binding signal (z-score) [8]: -0.054
- glycan array binding signal (z-score) [9]: 0.953
- glycan array binding signal (z-score) [10]: -0.236
- glycan array binding signal (z-score) [11]: 0.999
- glycan array binding signal (z-score) [12]: 0.11
- glycan array binding signal (z-score) [13]: 0.46
- glycan array binding signal (z-score) [14]: 0.018
- glycan array binding signal (z-score) [15]: 0.589
- glycan array binding signal (z-score) [16]: 0.775
- glycan array binding signal (z-score) [17]: -0.195
- glycan array binding signal (z-score) [18]: -0.083
- glycan array binding signal (z-score) [19]: -0.753
- glycan array binding signal (z-score) [20]: 0.591
- glycan array binding signal (z-score) [21]: 0.119
- glycan array binding signal (z-score) [22]: 0.026
- glycan array binding signal (z-score) [23]: 0.843
- glycan array binding signal (z-score) [24]: 0.009
- glycan array binding signal (z-score) [25]: -0.474
- glycan array binding signal (z-score) [26]: -0.417
- glycan array binding signal (z-score) [27]: -0.359
- glycan array binding signal (z-score) [28]: -0.049
- glycan array binding signal (z-score) [29]: 0.046
- glycan array binding signal (z-score) [30]: -0.284
- glycan array binding signal (z-score) [31]: -0.273
- glycan array binding signal (z-score) [32]: 1.28
- glycan array binding signal (z-score) [33]: 1.38
- glycan array binding signal (z-score) [34]: -0.676
- glycan array binding signal (z-score) [35]: 0.946
- glycan array binding signal (z-score) [36]: -0.39
- glycan array binding signal (z-score) [37]: -0.291

Source: the supplement of paper PMC8728848
